# Data as given in PubChem BioAssay AID2685 (National Center for Advancing Translational Sciences (NCATS), 2010).
# This is one part of the list. Shown are side measurements of this screen, not its main read-out; they come without a call. Most of these compounds were active or inconclusive in the main read-out, so they are no random draw. Potencies come from curve fits of mixed quality, noted in brackets.
# Test: qHTS Assay for Lipid Storage Modulators in Drosophila S3 Cells;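 for cell number change: cells counted by Cell Tracker Red CMTPX staining in the red channel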
# Settings: BODIPY lipid droplet fluorescence, 18-24 h; for cell number change: measured here: cell count max response, cells fed with added oleic acid
# Method in brief: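 Drosophila S3 cells got compounds at several concentrations plus oleic acid (400 uM solution). Laser-scanning cytometry with 488 nm excitation read lipid droplets at 500-530 nm and cells at 575-640 nm. Percent activity was relative to 20 uM Triacsin C.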
# [1] = measured here: cell number channel AC50, cells fed with added oleic acid
# [2] = measured here: lipid fluorescence (Fed channel) AC50, cells fed with added oleic acid
Compound,cell number change,AC50 [1],AC50 [2]
CCC(NC(=O)c1cc(COc2cc(C)c(Cl)c(C)c2)on1)c1ccncc1 (stereo not given),6.49%,"6.51 µM [rising, single point]","6.51 µM [rising, partial curve, poor fit]"
COc1ccc(Cl)cc1N(C)C(=O)CCc1nc(-c2ccc(C)cc2)no1,108%,"18.4 µM [rising, partial curve]","16.4 µM [rising, partial curve]"
CCN(CC)S(=O)(=O)c1ccc(CNC(=O)CN2C(=O)NC3(CCc4ccccc43)C2=O)cc1 (stereo not given),-47%,"13 µM [falling, partial curve, poor fit]",
CC1CCC/C(=N/Nc2nc3ccccc3s2)C1 (stereo not given),,,"0.116 µM [rising, single point]"
COc1cccc(Cn2nnc(C(=O)NCCc3ccc(Cl)cc3)c2N)c1,-3.69%,,"3.66 µM [rising, partial curve]"
CC(CNC(=O)COc1ccccc1)OC(=O)Nc1cccc(Cl)c1 (stereo not given),18.6%,,"8.2 µM [rising, single point]"
COc1cc(C(=O)OCC(=O)Nc2ccc(F)cc2F)cc(OC)c1OC,100%,"18.4 µM [rising, partial curve]","6.51 µM [rising, single point]"
CCc1ccc(NC(=O)C2C3CCC(O3)C2C(=O)O)cc1 (stereo not given),-4.05%,,"5.8 µM [falling, single point]"
CCOC(=O)Cn1cc(/C=C/[N+](=O)[O-])c2ccccc21,-55.2%,"13 µM [falling, partial curve, poor fit]","7.31 µM [falling, partial curve]"
Cc1ccc(C(=O)N/C(=C\c2ccco2)C(=O)NCCN2CCOCC2)cc1C,-1.17%,,"5.17 µM [falling, single point]"
O=C(/C=C/c1cccs1)NC(=S)NNC(=O)c1ccccc1O,-1.04%,,"0.82 µM [falling, full curve, poor fit]"
O=C(COc1ccc(Cl)cc1)N(Cc1ccccc1)c1nc(-c2ccccc2)cs1,-14.5%,,"25.9 µM [rising, single point]"
COc1cccc(-c2ncc3ccccc3c2COC(=O)c2ccco2)c1,-40.1%,"29.1 µM [falling, single point]","29.1 µM [falling, single point]"
Cc1ccccc1OCC(O)CN1CCN(CCN2C(=O)c3cccc4cccc(c34)C2=O)CC1 (stereo not given),2.38%,,"0.651 µM [rising, partial curve, poor fit]"
CCc1ccc(NC(=O)Cc2ccc(OC)cc2)cc1,-10.5%,,"6.51 µM [rising, partial curve, poor fit]"
Cc1cc(C)c(NC(=O)CN(C)C(=O)C2CC(=O)N(c3cccc4ccccc34)C2)c(C)c1 (stereo not given),-5.77%,,"6.51 µM [rising, partial curve]"
Cc1cc(C)c(C)c(S(=O)(=O)NCC(=O)NCC2CCCCC2)c1C,22.9%,,"0.116 µM [falling, full curve, poor fit]"
CCCc1[nH]c(=O)c(C#N)c2c1COC(C)(C)C2,16.3%,,"0.461 µM [falling, single point]"
CCN1C(=O)[C@@H]2[C@@H](c3ccc(-c4ccc(OC)cc4)c(OC)c3)N3CCCC[C@@]3(C(=O)OC)[C@@H]2C1=O,,,"8.2 µM [falling, partial curve]"
COc1cccc(C2c3[nH]c4ccccc4c3CCN2Cc2cccn2-c2ncccn2)c1 (stereo not given),19.2%,,"16.4 µM [rising, single point]"

Compound,cell number change,AC50 [1],AC50 [2]
COc1ccc(-c2nnc(NC(=O)c3ccc(S(=O)(=O)N4CCCc5ccccc54)cc3)o2)cc1,-3.53%,,"4.11 µM [falling, full curve, poor fit]"
CCOC(=O)c1c(C)[nH]c(C)c1C(=O)CSc1nnc(-c2ccncc2)n1Cc1ccccc1,,"0.206 µM [rising, full curve]","0.366 µM [rising, full curve]"
CC(=O)c1ccc(S(=O)(=O)N(CC(=O)NC2CC2)Cc2ccc(F)cc2)cc1,-13.4%,,"1.46 µM [falling, partial curve]"
COc1cccc(N(C(=O)CNC(=O)c2ccco2)C(C(=O)NC2CCCCC2)c2cccnc2)c1 (stereo not given),-18.1%,,"0.291 µM [falling, full curve]"
CCOc1ccccc1CN1CCN(S(C)(=O)=O)CC1,-5.9%,"6.51 µM [falling, single point]",
CC(C)CN(C(=O)CSc1nncs1)c1c(N)n(CC(C)C)c(=O)[nH]c1=O,0.755%,,"0.92 µM [rising, full curve, poor fit]"
COc1ccc(N(C=O)C(=S)SC)cc1,-22.6%,"2.31 µM [rising, single point]","4.11 µM [rising, single point]"
O=C(NCCN1CCOCC1)c1ccc2c(c1)N(Cc1cccc(F)c1)C(=O)c1ccccc1S2,14.8%,,
CC(=O)c1cccc(NC(=O)C2CCCN(S(=O)(=O)c3cccc4cccnc34)C2)c1 (stereo not given),-10.7%,,"1.46 µM [rising, partial curve]"
CS(=O)(=O)Nc1ccc(C2=NN(S(C)(=O)=O)C(c3ccc4c(c3)OCO4)C2)cc1 (stereo not given),29.3%,,"5.8 µM [rising, partial curve]"
CC(=O)N(c1ccccc1)c1c(F)c(F)c(F)c(F)c1F,-221%,"29.1 µM [falling, partial curve]","25.9 µM [falling, partial curve]"
Cc1noc(C)c1COC(=O)c1cccnc1SCC(=O)Nc1ccc2c(c1)OCO2,-17.7%,,"0.00461 µM [rising, full curve, poor fit]"
CSc1ncccc1C(=O)OCc1ccc(Br)cc1,31.8%,,
CCNC(=O)NC(=O)C(C)Oc1ccc(Br)cc1Br (stereo not given),-7.71%,,"6.51 µM [falling, partial curve, poor fit]"
COc1ccc(N/C(N)=N/c2nc(C)cc(=O)[nH]2)cc1,,,"20.6 µM [rising, partial curve]"
CN(C)Cc1cc(CCNC(=O)c2ccc(Cl)cc2)ccc1O,9.91%,,"29.1 µM [rising, single point]"
Cc1[nH]c2ccc(-c3nnc(SCC(=O)c4ccccc4F)o3)cc2c1C,-23.7%,,"1.84 µM [falling, partial curve, poor fit]"
Cc1cc(C(=O)CSc2nnc(-c3ccccc3)n2-c2ccccc2)c(C)n1-c1ncn[nH]1,42.6%,"13 µM [rising, partial curve, poor fit]",
CCc1nnc(NC(=O)CSc2nc3cccnc3n2C2CCCCC2)s1,2.23%,,"6.51 µM [rising, single point]"
O=C(c1sccc1-n1cccc1)N1CCCC1,-2.5%,,

Compound,cell number change,AC50 [1],AC50 [2]
COc1ccc(C(c2sc3nc(C)nn3c2O)N2CCC3(CC2)OCCO3)cc1 (stereo not given),0.324%,,"18.4 µM [rising, single point]"
Cn1c(=O)c2c(ncn2CC(=O)Nc2nc3ccc(F)cc3s2)n(C)c1=O,31.7%,,
Cc1ccccc1NC(=O)Nc1cc(-c2ccccc2)nn1C,-20.3%,,"1.46 µM [falling, full curve]"
Cc1ccc(CC(=O)N/N=C/c2ccc3c(c2)OCO3)cc1,11.1%,,"7.31 µM [rising, partial curve]"
Cc1ccc(NC(=S)C2=C(O)c3ccccc3N(C)S2(=O)=O)cc1,-38.7%,"14.6 µM [falling, single point]","18.4 µM [falling, single point]"
CCOC(=O)c1c(NC(=S)Nc2ccc(OC)cc2)sc2c1CCCCC2,-6.74%,,"9.2 µM [rising, partial curve]"
Cc1ccccc1CC1SC(N)=NC1=O (stereo not given),15.5%,,
COc1ccc(OCC(=O)Nc2ccc(C)c(S(=O)(=O)N(C)C)c2)cc1,12%,,"29.1 µM [falling, partial curve, poor fit]"
CN(C(=O)c1ccc2c(=O)n3c(nc2c1)CCCCC3)c1ccccc1Cl,8.02%,,
COc1ccc(/C=C/C(=O)c2ccc[nH]2)cc1OC,2.85%,,"0.461 µM [rising, single point]"
COCCCNC(=O)c1c[nH]c2ccc(S(=O)(=O)N(C)c3ccccc3C)cc2c1=O,-29.5%,,"29.1 µM [falling, single point]"
CCC1(C)NC(=O)N(CC(=O)N2CCC(Cc3ccccc3)CC2)C1=O (stereo not given),36.3%,"25.9 µM [rising, single point]","0.82 µM [falling, partial curve]"
CC(C)CCNC(=S)NC1CCCC1,,,"29.1 µM [rising, single point]"
O=C1CSCN1c1cc(Cl)ccc1Cl,18.2%,"3.66 µM [falling, partial curve]",
COc1ccc(Cl)cc1Nc1ncnc2sc(C)c(S(=O)(=O)N3CCC(C)CC3)c12,-2.36%,,"36.6 µM [rising, partial curve, poor fit]"
COc1ccc(C(=O)COC(=O)CSCc2c(C)noc2C)cc1OC,-1.75%,,
CCOC(=O)c1cc2c(ccn2C)n1CC(=O)N(Cc1ccccc1)c1ccc(F)cc1,-14%,,"29.1 µM [falling, single point]"
Cc1nc(NCc2ccccc2)c2cc[nH]c2n1,-13.3%,,"0.259 µM [rising, full curve]"
Cc1ccc(NC(=O)c2cccc(S(=O)(=O)N(C)C3CCCCC3)c2)nc1,,,"0.651 µM [rising, single point]"

# A second format for some results above.
Compound	cell number change	AC50 [1]	AC50 [2]
Cc1cc(C(=O)CSc2nnc(-c3ccccc3)n2-c2ccccc2)c(C)n1-c1ncn[nH]1	42.6%	13 µM [rising, partial curve, poor fit]	
CCc1nnc(NC(=O)CSc2nc3cccnc3n2C2CCCCC2)s1	2.23%		6.51 µM [rising, single point]
O=C(c1sccc1-n1cccc1)N1CCCC1	-2.5%		
COc1ccc(C(c2sc3nc(C)nn3c2O)N2CCC3(CC2)OCCO3)cc1 (stereo not given)	0.324%		18.4 µM [rising, single point]
Cn1c(=O)c2c(ncn2CC(=O)Nc2nc3ccc(F)cc3s2)n(C)c1=O	31.7%		
